Data from article doi:10.1101/2021.07.27.453980.

Target: T1, Abz-labelled human GM130 C-terminus mimicking peptide (human)
T1 sequence (peptide, Abz on the N-terminus): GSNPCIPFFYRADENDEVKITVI
Experiment: other fluorescence titration

binding: binds
Substance: human DGRASP65 (GRASP domain of GRASP65) (domain or fragment)

Results are given in words; binding and its absence hold for the method and conditions named. A result given as binding can be weak or reduced; the word gives no strength.
